In all, about 330,000 compounds went through this assay and about 7,700 (2.3%) were called active. The inconclusive results got no clear call from the source; some entries with a clear call stand among them for comparison. Calls come from the whole dose curve; as a rule, active = well fitted inhibition curve with a large enough effect; inconclusive = small, poorly fitted or top-dose-only effect, or effect the other way; inactive = flat fitted curve, though single readings scatter. Potencies beside an inconclusive call are fits to weak or partial responses and may not hold up.
Assay: qHTS screen for small molecules that inhibit ELG1-dependent DNA repair in human embryonic kidney (HEK293T) cells expressing luciferase-tagged ELG1; note: nearly all actives have a fitted effect of over 55% in size
Conditions: HEK293T ELG1-luciferase reporter, luminescence, 16 h, DNA damage induced by 5-fluorouridine; activity change, negative = inhibition: at 46.1 µM (top of the series)
Outline: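 Cells (2,000 per well) received 5-fluorouridine plus test compound or DMSO and were incubated 16 hr at 37 °C, 5% CO2. Luciferase activity was read by luminescence 30 min after ONE-Glo addition; signal suppression marked inhibition of damage-induced ELG1 function.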
% is set by controls: 0 for no effect and ±100 for the full control effect; potency is the fitted concentration of half-maximal effect.

Row | Structure (SMILES) | Potency | activity change, negative = inhibition
1 | Cc1ccc(/C=N/NC(=O)C(O)c2ccccc2)o1 (stereo unspecified) | inconclusive: 14.6 µM [activator, single point] | –
2 | O=C(Nc1ccccc1C(=O)O)/C(=C/c1ccc([N+](=O)[O-])cc1)NC(=O)c1ccc(Br)o1 | – | inactive: 1.06%
3 | COc1ccc(C(=O)Nc2ccnn2C2CCN(C(=O)c3cccnc3)CC2)cc1 | – | inactive: -1.68%
4 | COc1cccc(/C=N/Nc2cc(C)nc(-c3ccccc3O)n2)c1O | active: 5.8 µM | –
5 | CSCCC(NS(=O)(=O)c1ccccc1F)C(=O)Nc1ccncc1 (stereo unspecified) | inconclusive: 20 µM [activator, single point] | –
6 | CC(C)(C)c1cc(C(=O)Nc2cccnc2)cc(C(=O)Nc2cccnc2)c1 | inconclusive: 11.6 µM [inhibitor, partial curve] | –
7 | Cc1ccc(-c2nc(N3CCOCC3)sc2C(=O)N2CCCCC2)cc1 | – | inactive: 1.7%
8 | COc1ccc(-c2noc(N3CCC(C(=O)NC(C)c4ccccc4)CC3)n2)cc1 (stereo unspecified) | active: 13 µM | –
9 | COn1c(=O)c(-c2cccs2)[n+]([O-])c2ccccc21 | inconclusive: 0.092 µM [inhibitor, full curve, poor fit] | –
10 | CC(=O)c1ccc(OCC(=O)Nc2ccc(N3CCCCC3)cc2)cc1 | – | inactive: 1.01%
11 | Cc1cccc(NC(=O)NCC(c2ccc(F)cc2)N2CCN(C)CC2)c1 (stereo unspecified) | inconclusive: 20.6 µM [activator, single point] | –
12 | COc1ccc(OC)c(CN2CCN(C(=O)c3cccc(S(=O)(=O)Nc4ccccc4OC)c3)CC2)c1 | inconclusive: 32.6 µM [inhibitor, single point] | –
13 | Cc1cc(C)n(-c2ccc(C(=O)Nc3cccc([N+](=O)[O-])c3)cc2)n1 | inconclusive: 18.3 µM [inhibitor, single point] | –
14 | Oc1cc(-n2cccn2)c(O)cc1-n1cccn1 | inconclusive: 29.1 µM [activator, single point] | –
15 | O=C(c1ccc(Cl)cc1)c1cnc2ccccn12 | inconclusive: 14.6 µM [activator, partial curve] | –
16 | Cc1ccc(Cn2c(=O)c3cccnc3n(CC(=O)Nc3cccc(C(F)(F)F)c3)c2=O)cc1 | – | inactive: -25.4%
17 | O=C(Nc1ccccc1N1CCCC1)c1cc2ccccc2o1 | inconclusive: 5.17 µM [activator, single point] | –
18 | Cc1csc(NC(=O)C2CCN(S(=O)(=O)c3cccs3)CC2)n1 | inconclusive: 20.6 µM [inhibitor, single point] | –
19 | CCN(c1cccc(C)c1)S(=O)(=O)c1ccc2c3c(cccc13)C(=O)N2 | inconclusive: 29.1 µM [inhibitor, single point] | –
20 | CC(C)C(NC(=O)C1CCCCC1)C(=O)Nc1ccc2c(c1)OCCO2 (stereo unspecified) | inconclusive: 18.4 µM [activator, partial curve] | –
21 | COC(=O)c1ccc(/C=C/C(=O)O)cc1 | inconclusive: 18.3 µM [activator, partial curve, poor fit] | –
22 | O=C(NCc1ccccc1)Nc1cccn(Cc2c(F)cccc2Cl)c1=O | inconclusive: 29.1 µM [inhibitor, single point] | –
23 | CCCCn1c(SCn2nnc3ccccc3c2=O)nc2cc(S(N)(=O)=O)ccc21 | inconclusive: 18.4 µM [inhibitor, single point] | –
24 | O=C(Nc1ccccc1N1CCCCC1)c1ccc(OC(F)F)cc1 | – | inactive: -11.8%

Row | Structure (SMILES) | Potency | activity change, negative = inhibition
25 | CC(C)CC1NC(=O)N(CC(=O)Nc2cc(S(=O)(=O)N3CCOCC3)ccc2Cl)C1=O (stereo unspecified) | – | inactive: 0%
26 | CCOc1cc(/C=C/C(=O)c2ccc(O)cc2)ccc1OCC(=O)N(C)C | inconclusive: 20.6 µM [inhibitor, partial curve, poor fit] | –
27 | CCn1c(COc2ccccc2C)nnc1SCC(=O)Nc1ccc2c(c1)OCCO2 | inconclusive: 23.1 µM [inhibitor, single point] | –
28 | Cc1ccc(NC(=O)C(C)OC(=O)CCC2CCCCC2)cc1 (stereo unspecified) | – | inactive: 12.1%
29 | O=C(O)C1CCCCC1C(=O)Nc1cccc(Cl)c1Cl (stereo unspecified) | inconclusive: 11.6 µM [activator, partial curve, poor fit] | –
30 | Cc1ccccc1OCc1nnc(SCC(=O)Nc2ccc3nc(SCC(=O)NC(C)(C)C)sc3c2)n1C | inconclusive: 14.6 µM [inhibitor, partial curve] | –
31 | Cc1ccc2oc(-c3ccccc3C(=O)O)cc(=O)c2c1 | inconclusive: 32.6 µM [activator, partial curve, poor fit] | –
32 | CCN(C(=O)c1cc2ccccc2oc1=O)c1ccccc1 | inconclusive: 9.2 µM [activator, partial curve] | –
33 | CCOc1ccc(C(C)(N)C(=O)O)cc1 (stereo unspecified) | – | inactive: 0.759%
34 | C=C[C@H](CC(C)C)N(Cc1ccccc1)S(=O)(=O)N(Cc1ccccc1)[C@@H](C=C)CC(C)C | – | inactive: 15.7%
35 | NC(=O)C1CCN(C(=O)c2ccc3nc(N4CCCCC4)sc3c2)CC1 | inconclusive: 14.6 µM [activator, partial curve] | –
36 | C=CCn1c(N)c(C(=O)OCCC)c2nc3ccccc3nc21 | active: 16.4 µM | –
37 | CCOC(=O)N1CCN=C1SCc1ccc(C(F)(F)F)cc1 | – | inactive: 7.6%
38 | Cc1nc2ccccc2c(=O)n1NC(=O)c1c(F)cccc1F | – | inactive: -0.0664%
39 | O=C(C1CC1)N1CCN(S(=O)(=O)c2ccc3c(c2)OCCO3)CC1 | inconclusive: 16.4 µM [inhibitor, single point] | –
40 | Cc1ccc(C(=O)CSc2nnc3ccccn23)c(C)c1 | inconclusive: 5.17 µM [activator, partial curve] | –
41 | Cc1cccc(C(=O)Nc2nnc(SCC(=O)NC3CC3)s2)c1 | inconclusive: 13 µM [activator, partial curve] | –
42 | CCCN1CCN(C(=O)c2ccc(CS(=O)c3ccc(Cl)cc3)o2)CC1 (stereo unspecified) | – | inactive: 14.3%
43 | Cc1oc(C(C)(C)C)cc1C(=O)NC(Cc1ccccc1)C(=O)O (stereo unspecified) | – | inactive: 12.9%
44 | O=C(NCc1ccc(Cl)cc1)[C@@H]1CCCN1S(=O)(=O)c1ccc(Cl)cc1 | – | inactive: -15.8%
45 | O=C(CN1CCC(n2nnc3cc(F)ccc32)CC1)N1CCc2ccccc2C1 | active: 20.6 µM | –
46 | O=S(=O)(NCCCCCNS(=O)(=O)c1ccc(F)cc1)c1ccc(F)cc1 | inconclusive: 29.1 µM [inhibitor, single point] | –
47 | Fc1ccc(C2c3[nH]c4ccccc4c3CCN2CCCn2cccn2)cc1 (stereo unspecified) | inconclusive: 29.1 µM [inhibitor, partial curve, poor fit] | –
48 | COc1ccccc1CNS(=O)(=O)c1ccc2c(c1)NC(=O)C(C)S2 (stereo unspecified) | inconclusive: 18.3 µM [inhibitor, single point] | –

Row | Structure (SMILES) | Potency | activity change, negative = inhibition
49 | O=C(Nc1ccn(Cc2cccc3ccccc23)n1)c1cccnc1 | inconclusive: 23.1 µM [inhibitor, single point] | –
50 | Cc1ccc(CC2CC(=O)N(c3nc4ccccc4n3C)C2=O)cc1 (stereo unspecified) | – | inactive: -2.33%
51 | CC(=O)OCc1c(C)cc(C)c(/C=C(/C#N)C(N)=O)c1C | – | inactive: -5.13%
52 | CCn1c(N)c(C(=O)NCc2ccco2)sc1=S | inconclusive: 23.1 µM [activator, single point] | –
53 | OCC[C@H]1C[C@@H](O)[C@H](O)[C@]2(Cc3ccccc3CO2)O1 | – | inactive: -1.17%
54 | CC1=C(C(=O)O)N2C(=O)C(NC(=O)c3c(F)cccc3F)C2SC1 (stereo unspecified) | – | inactive: 20.1%
55 | CCc1noc(C)c1C(=O)NNC(=O)COc1cc(C)ccc1C | inconclusive: 4.61 µM [inhibitor, single point] | –
56 | O=S(=O)(c1ccc(NC(=S)N2CCN(c3ccc(O)cc3)CC2)cc1)N1CCOCC1 | active: 8.2 µM | –
57 | CCC(C)NS(=O)(=O)c1ccc(OCC(=O)Nc2ccc(F)cc2F)cc1 (stereo unspecified) | inconclusive: 0.206 µM [activator, single point] | –
58 | COc1ccc(OCC(=O)OCC(=O)Nc2cc(S(=O)(=O)N3CCOCC3)ccc2Cl)cc1 | inconclusive: 23.1 µM [activator, partial curve, poor fit] | –
59 | COc1ccc(CN(C)C(=O)c2ccc(NS(=O)(=O)c3ccc(C)c([N+](=O)[O-])c3)cc2)c(OC)c1OC | inconclusive: 25.9 µM [inhibitor, single point] | –
60 | Cc1ccc(C(=O)N2CCC(C)CC2)cc1C | inconclusive: 23.1 µM [activator, single point] | –
61 | Cc1ccc2nc3n(c(=O)c2c1)-c1ccc(Cl)cc1C(=O)NC3CC(C)C (stereo unspecified) | – | inactive: 5.52%
62 | CCOC(=O)C1CCCN(c2ncnc3c2cnn3-c2ccc(Cl)cc2)C1 (stereo unspecified) | inconclusive: 11.6 µM [activator, partial curve, poor fit] | –
63 | CC(C)C(=O)N1CCN(c2nc(-c3ccccc3)c3c(c2C#N)CCCC3)CC1 | inconclusive: 20.6 µM [inhibitor, single point] | –
64 | Cc1cc(=O)oc2c3c(cc(OCC(=O)NCc4ccccn4)c12)OC(C)(C)CC3 | inconclusive: 29.1 µM [inhibitor, single point] | –
65 | OCCC1CN(Cc2cnc(-c3ccc(Cl)cc3)nc2)CCN1C1CCCCC1 (stereo unspecified) | inconclusive: 2.06 µM [inhibitor, partial curve, poor fit] | –
66 | CC1CCC2(CC1)NC(=O)N(NC(=O)c1cc3ccccc3o1)C2=O (stereo unspecified) | – | inactive: -0.583%
67 | Cc1ccc(-n2cc(CN3CCN(c4ccccn4)CC3)c(-c3ccc(F)cc3)n2)cc1 | – | inactive: -8.05%
68 | Cn1c(=O)c2c(nc(NNC(=O)C(F)(F)F)n2C)n(C)c1=O | inconclusive: 5.17 µM [inhibitor, single point] | –
69 | CSc1ccccc1NC(=O)CN1C(=O)C2CC=CCC2C1=O (stereo unspecified) | inconclusive: 8.2 µM [activator, partial curve] | –
70 | O=C1c2ccccc2C(=O)N1CCSc1n[nH]c(=S)s1 | – | inactive: -1.47%
71 | CSc1ccc(/C=N/NC(=O)c2cccs2)cc1 | inconclusive: 2.91 µM [activator, full curve] | –

Looked up above:
Entry of `Cc1oc(C(C)(C)C)cc1C(=O)NC(Cc1ccccc1)C(=O)O` (stereo unspecified) under activity change, negative = inhibition: inactive: 12.9%
Entry of `O=C(Nc1ccccc1N1CCCC1)c1cc2ccccc2o1` under Potency: inconclusive: 5.17 µM [activator, single point]
Entry of `COc1cccc(/C=N/Nc2cc(C)nc(-c3ccccc3O)n2)c1O` under Potency: active: 5.8 µM
Entry of `O=C(NCc1ccc(Cl)cc1)[C@@H]1CCCN1S(=O)(=O)c1ccc(Cl)cc1` under activity change, negative = inhibition: inactive: -15.8%
Entry of `Cn1c(=O)c2c(nc(NNC(=O)C(F)(F)F)n2C)n(C)c1=O` under Potency: inconclusive: 5.17 µM [inhibitor, single point]

Reference: PubChem BioAssay AID504467 (National Center for Advancing Translational Sciences (NCATS), 2011)
